Assay: Comparison of plasma concentrations for urethra-closing effect and anti-obesity effect (analysis of Examples 1-9 and literature)

Row | SMILES | difference between rat plasma concentration elevating urethral resistance by 10 cmH2O (61 ng/mL) and human plasma concentration (45 ng/mL) [fold] | fold lower plasma concentration for sufficient urethral resistance increase (LPP10) than that showing greater weight loss by 3.8% in obese rats (rat, ratio of Example 7 to Example 6 plasma concentrations) [fold]
1 | CC(C)N(C)c1cnc2c(n1)OCCNC2.Cl [Compound A, N-methyl-N-(1-methylethyl)-6,7,8,9-tetrahydropyrazino[2,3-f][1,4]oxazeine-3-amine] | 1.4 | 
2 | CC(C)N(C)c1cnc2c(n1)OCCNC2.Cl [Compound A′, N-methyl-N-(1-methylethyl)-6,7,8,9-tetrahydropyrazino[2,3-f][1,4]oxazeine-3-amine] |  | 11

— patent US20210052600A1, “THERAPEUTIC AGENTS FOR STRESS URINARY INCONTINENCE AND INCOTINENCE OF FECES” (Takeda Pharmaceutical Company Limited, priority 2017, published 2021)
